# Measurements: PubChem BioAssay AID588499 (NMMLSC, 2011)
# Among all 360,000 compounds or so, about 610 (0.17%) were called active. Inconclusive results, whose numbers are uncertain, are shown with a selection of clear calls. Cut-off read from the data, not from the text of the source: active = inhibition above about 30%; inconclusive = no clear call, values can overlap the other calls; inactive = below that.
# Tested on: Botulinum neurotoxin type A light chain protease (Clostridium botulinum A str. ATCC 3502)
# Test: blockers of BoNT/A LC substrate cleavage – biochemical, flow cytometry, MLPCN library, primary screen (AID 588499); note: plate controls were buffer without enzyme for full effect and enzyme alone for no effect
# Conditions: multiplex microsphere protease substrate cleavage, at 10 µM, hits give high values
row,SMILES,inhibition
1,CCN(CCNC(=O)Nc1ccc(Cl)cc1)c1ccccc1,inactive: 0.1%
2,Cc1ccccc1NC(=O)Cc1nnc(SCC(=O)c2ccc(Br)cc2)n1C,inconclusive: 10.6%
3,Cc1cccc(NC(=O)COc2coc(CN3CCc4ccccc4C3)cc2=O)c1,inconclusive: 6.2%
4,Cc1ccc(C)c(S(=O)(=O)NC2CCS(=O)(=O)C2)c1 (stereo not given),inconclusive: -2%
5,COCC(C)NC(=O)COCc1cc(-c2ccc3c(c2)OCO3)on1 (stereo not given),inactive: -3.1%
6,Cc1noc(C)c1C(=O)N1CCC1(C)C(=O)NS(=O)(=O)c1cccc(Cl)c1 (stereo not given),inactive: -0.5%
7,Oc1c(N=Nc2ccccn2)ccc2ccccc12,active: 35.6%
8,COc1ccc(C(CNC(=O)c2ccc(NS(=O)(=O)c3ccc(F)c(C)c3)cc2)N(C)C)cc1 (stereo not given),inconclusive: 7.3%
9,Cc1ccccc1-n1c(=O)n(CCc2ccccc2)c(=O)c2[nH]cnc21,inconclusive: -1.9%
10,COC(=O)NC1CCC(CC2CCC(NC(=O)OC)CC2)CC1 (stereo not given),inactive: -1%
11,CC(C)C(=O)N1CCN(c2ccc(NC(=O)c3ccc4c(c3)OCCO4)cc2Cl)CC1,inconclusive: 1.2%
12,O=C(Nc1ccc(O)cc1)C1CC=CCC1 (stereo not given),inconclusive: 7.5%
13,O=C(CSc1ncn[nH]1)Nc1ccccc1Sc1ccccc1,inconclusive: -1%
14,O=C(CSc1nnc(CNc2ccc(Cl)cc2)o1)Nc1nc2ccccc2s1,inconclusive: -5.7%
15,CCOc1ccccc1NC(=O)CCCc1ccc(OC)c(C)c1,inconclusive: -4.4%
16,CCC(=O)Nc1cc(Cl)ccc1C(=O)O,inconclusive: 3%
17,COc1cc(/C=C2\SC(=O)NC2=O)ccc1Oc1ccc([N+](=O)[O-])cn1,inconclusive: -3%
18,CSc1ccc(NC(=O)NCc2ccccc2)cc1,inconclusive: 15.1%
19,COc1ccc2c(c1OC)C(=O)OC2CC(=O)c1ccc2c(c1)OCO2 (stereo not given),inconclusive: 1.7%
20,C=COCCn1c(C)c(C(=O)OCC)c2cc(O)ccc21,inconclusive: 1.2%
21,Cc1c(/C=N/O)sc2ccccc12,inconclusive: -0.8%
22,COc1ccc(-c2csc(N(CC3CCCO3)C(=O)c3cccs3)n2)cc1 (stereo not given),inconclusive: -1%
23,O=[N+]([O-])c1ccccc1-c1ccc(C(=S)N2CCN(c3ccccc3)CC2)o1,inconclusive: 20.7%

row,SMILES,inhibition
1,Cn1c(=O)c2c(ncn2CC(=O)N2CCN(c3ccc([N+](=O)[O-])cc3)CC2)n(C)c1=O,inconclusive: 6.5%
2,COc1ccc(S(=O)(=O)N2CCOCC2)cc1NC(=O)C1CC(=O)N(c2ccc3c(c2)OCCO3)C1 (stereo not given),inactive: 0.8%
3,CS(=O)(=O)c1nc(-c2ccc(Br)cc2)cc(-c2ccccc2)c1C#N,inactive: 1%
4,COc1ccc(N2CCC(CNC(=O)Nc3cccc(OC)c3)C2)cc1 (stereo not given),inconclusive: -2.2%
5,C[C@@H]1Cc2[nH][nH]c(=O)c2[C@H](c2ccc(Cl)cc2)O1,inactive: -0.2%
6,CC(C)Oc1ccc(C(=O)O)c(C(=O)O)c1,inconclusive: -5.4%
7,CCc1nc2ccc(C)cc2c(C(=O)NC2CCCCC2C)c1C (stereo not given),inconclusive: 8.4%
8,NS(=O)(=O)c1ccc(-c2ccc(/C=C3\SC(=S)N(C4CCS(=O)(=O)C4)C3=O)o2)cc1 (stereo not given),active: 65.1%
9,CCN(CC(=O)Nc1c(F)cccc1F)C(=O)CCCc1nc2ccccc2c(=O)[nH]1,inconclusive: -4.7%
10,O=C(NCCOC(=O)c1ccc(Cl)cc1)c1cccnc1,inconclusive: -3.1%
11,Cc1nc(NC(=O)c2ccccc2)sc1-c1csc(NCc2ccccc2)n1,inactive: 0.4%
12,COc1cccc(CNc2ccc(Br)cn2)c1O,inconclusive: -5.1%
13,COc1cccc(C(=O)Nc2ccc3c(c2)C(=O)N(CCC(=O)O)C3=O)c1,inconclusive: -1%
14,O=C(O)C1C2CCCCC2=C2CCCCC2C1C(=O)O (stereo not given),inconclusive: 3.6%
15,O=C(Nc1ccc(NC(=O)c2cccs2)cc1Cl)c1ccco1,inactive: -2%
16,COc1ccc(S(=O)(=O)N2CCSC2c2ccc(OC)c(OC)c2)cc1 (stereo not given),inconclusive: -3.4%
17,COc1ccc(NC(=O)Nc2ccc3c(c2)C(=O)N([C@H](C)CO)C[C@@H](C)[C@@H](CN(C)C(=O)C2CCCCC2)OCCCC[C@H](C)O3)cc1,inactive: -0.3%
18,CC(=O)N(O)c1ccc(C=Cc2ccccc2)cc1,inactive: -0.4%
19,CCN(CC)c1nc(N)nc(NS(=O)(=O)c2ccc(Cl)cc2)n1,inconclusive: 2.5%
20,CN1C(=O)C2(N=c3ccccc3=N2)c2ccccc21,inactive: -0.3%
21,CCOc1ccc(C(CCc2ccccc2)NC(=O)c2ccccc2)cc1OCC (stereo not given),inconclusive: 4.1%
22,CCCCC(=O)Nc1cccc(NC(=O)CC)c1,inactive: 0.6%
23,Clc1ccc(-c2ncc3ccccn23)cc1,active: 51%

row,SMILES,inhibition
1,Cc1nn2c(C)c(C(=O)Nc3ccccc3)cnc2c1-c1ccccc1,inconclusive: 22.3%
2,COc1ccccc1NC(=O)C(C)OC(=O)Cn1cnc2c1c(=O)n(C)c(=O)n2C (stereo not given),inconclusive: -0.1%
3,CC(=O)c1cccc(NC(=O)N2CCCC2C(=O)NCc2ccc(F)cc2)c1 (stereo not given),inactive: 1.9%
4,COc1cc2c(cc1OC)C(c1ccc(-c3ccc(Cl)cc3Cl)o1)=NCC2,inconclusive: 2.5%
5,Cc1ccc(S(=O)(=O)C2(C(=O)N3CCCCCC3)CC2)cc1,inconclusive: -2.4%
6,C=CCn1c(=O)c(C(=O)NCCc2ccccc2)c(O)c2ccccc21,inconclusive: 2%
7,CCN(CC)CCCNC(=O)CC1Oc2ccc(C)cc2NC1=O (stereo not given),inactive: 0.9%
8,COc1ccc(N=C2SC(C(=O)O)CC(=O)N2Cc2ccc(OC)c(OC)c2)cc1 (stereo not given),inconclusive: -1.2%
9,COc1cc(Br)c(Br)cc1N,inconclusive: -31.9%
10,O=C(Nc1ccccc1C(F)(F)F)N1CCCC1c1cccnc1 (stereo not given),inconclusive: 16.7%
11,O=C(Cc1c(C(=O)O)[nH]c2ccccc12)NCCN1CCN(c2ccccc2F)CC1,inconclusive: -1.7%
12,CCCCN(C)CCNC(=O)c1cc2cc3ccc(OC)cc3nc2o1,inactive: -0.6%
13,CCn1c(C)nc2cc(C(=O)NNS(=O)(=O)c3ccc(C)cc3C)ccc21,inconclusive: 4.7%
14,O=c1cccc2n1CC1CC2CN(Cc2ccc3c(c2)OCO3)C1 (stereo not given),inconclusive: 3.3%
15,Cc1scc(C(=O)N2CCN(S(C)(=O)=O)CC2)c1-c1ccccc1,inconclusive: -1.3%
16,CC1=CC(=C(C#N)c2nc3ccccc3s2)C=C(C)N1c1ccc(F)cc1F,active: 48.3%
17,COC(=O)CN(c1ccc(C)cc1)S(=O)(=O)c1c(C)[nH]c(=O)[nH]c1=O,inconclusive: 0.1%
18,O=C(NCCN1CCOCC1)c1cc(-c2ccc(Cl)cc2)on1,inconclusive: -4.4%
19,O=C(O)C1C2C=CC(C2)C1C(=O)NC1CCN(Cc2ccccc2)CC1 (stereo not given),inconclusive: 0.8%
20,CC(=O)Nc1cccc(NC(=O)CSc2nc(=O)n(CCN3CCOCC3)c3c2CCC3)c1,inconclusive: -0.1%
21,COc1cc(CCC(C)=O)ccc1OC(=O)c1c(F)cccc1Cl,inconclusive: 6.8%
22,CCC(C)(NC=O)C(=O)Nc1c(C)cccc1C (stereo not given),inconclusive: -5.7%
23,CCOc1ccc(NC(=O)COC(=O)C2CCC(=O)N2)c([N+](=O)[O-])c1 (stereo not given),inconclusive: 0.8%

# Copied from the list:
# inhibition with COc1ccccc1NC(=O)C(C)OC(=O)Cn1cnc2c1c(=O)n(C)c(=O)n2C (stereo not given) reads inconclusive: -0.1%
# inhibition with O=C(NCCN1CCOCC1)c1cc(-c2ccc(Cl)cc2)on1 reads inconclusive: -4.4%
# inhibition with CCOc1ccc(NC(=O)COC(=O)C2CCC(=O)N2)c([N+](=O)[O-])c1 (stereo not given) reads inconclusive: 0.8%
# inhibition with COc1cc2c(cc1OC)C(c1ccc(-c3ccc(Cl)cc3Cl)o1)=NCC2 reads inconclusive: 2.5%

# Following part.

row,SMILES,inhibition
1,O=S(=O)(c1ccc(F)cc1)N1CCCC1c1cccnc1 (stereo not given),inconclusive: -15.3%
2,O=C(NCc1ccco1)c1sc(=S)n2c1[nH]c(=O)c1ccccc12,inconclusive: 6%
3,NC(=O)c1cccc(S(=O)(=O)N2CCCCC2)c1,inconclusive: 3.1%
4,OCCCN=C1CCCc2c1[nH]c1ccc(Cl)cc21,inconclusive: -50.4%
5,O=C(CCS(=O)(=O)Cc1ccccc1)Nc1nc2c(s1)CCCC2,inconclusive: -3.1%
6,NC(=NC(=O)c1ccc(OCC(F)(F)F)nc1)c1ccccc1,inactive: -0.5%
7,COc1ccc(NC(=O)CN(c2c(C)cccc2C)S(C)(=O)=O)cc1,inconclusive: -0.1%
8,CCc1ccc(-n2c(=O)c3ccccc3n(CC(=O)C(C)(C)C)c2=O)cc1,inactive: -1.1%
9,Cc1onc(-c2c(F)cccc2Cl)c1C(=O)Nc1nc2c(s1)CCCC2,inconclusive: 4%
10,O=C(NNc1ccccc1C(F)(F)F)c1sccc1Br,inconclusive: 5.5%
11,COc1ccc(CNC(=O)c2ccccc2NC(=O)C2=CSCCO2)c(OC)c1,inactive: -0.8%
12,COCCCNC(=O)C[C@H]1C[C@H](C(=O)N2CCOCC2)[C@@]2(CCC3CCCC3)c3[nH]c4cc(-c5ccco5)ccc4c3CCN2C1=O,inactive: 0.7%
13,CN1CCN(C2=NC(=O)/C(=C/c3cn[nH]c3-c3ccccc3)S2)CC1,inconclusive: 8%
14,CCOc1ccc(-n2c(Cc3cc(=O)[nH]c(=O)[nH]3)nnc2SCC)cc1,inconclusive: 7.1%
15,Nc1nc(NCCO)nc(NCc2ccccc2)c1[N+](=O)[O-],inactive: 1.6%
16,COc1cccc(-c2cnc(C(O)c3cc(Cl)cc(Cl)c3)[nH]2)c1 (stereo not given),inactive: -0.2%
17,CCOc1ccc(NC(=O)C2CCCN(S(=O)(=O)c3cccc4nsnc34)C2)cc1 (stereo not given),inconclusive: -1%
18,COc1cccc(CNC(=O)c2ccc(C)c(S(=O)(=O)N3CCCCC3)c2)c1,inconclusive: -5.9%
19,Cc1ccc(C)c(Nc2ccc(C(=O)NCCc3ccccc3)cn2)c1,inactive: 0.2%
20,CN(C)N1C(=O)CC(NNC(=O)c2ccncc2)C1=O (stereo not given),inactive: -0.4%
21,Cc1ccc(/C(O)=C2/C(=O)C(=O)N(c3ccccn3)C2c2ccc(F)cc2)cc1 (stereo not given),inconclusive: -0.5%
